Measured values as given in PubChem BioAssay AID2417 (National Center for Advancing Translational Sciences (NCATS), 2010).
The whole screen tested about 140,000 compounds, of which about 4,300 (3.1%) were called active. The shares of active, inactive and inconclusive entries below differ from those in the screen.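 Rule for the calls: active = readout at or below -70, meaning at least 70% loss of cells showing the perinucleolar compartment, a nuclear body marking cancer cells; inconclusive = readout between -30 and a set limit; inactive = the rest.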

Assay: High Content Assay for Compounds that inhibit the Assembly of the Perinucleolar Compartment;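 note: plate controls were DMSO wells for no effect and camptothecin positive control wells for full effect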
Settings: PC3M PTB-GFP, PNC prevalence imaging, 16 h; at 10 µM; active compounds read low
Summary of the method: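 Compounds are pinned in duplicate onto adhered PC3M cells stably expressing GFP-tagged PTB and incubated 16 h at 37 C. Cells are then fixed, nuclei stained with Hoechst, and PNC-positive cells counted.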

Row | Structure (SMILES) | activity change (PNC), negative = inhibition
1 | CC(=O)c1cccc(NC(=O)Nc2ccc(C(=O)N3CCCC3)cc2)c1 | inactive: -2.8%
2 | C=CCSC1=C(C#N)C(c2cccc(OC)c2)CC(=O)N1 (stereo unspecified) | inconclusive: -73.8%
3 | COC(=O)c1ccc2c(=O)n(CC3CCCO3)c(SCC(=O)Nc3ccccc3OC)nc2c1 (stereo unspecified) | inconclusive: -70.3%
4 | O=C(CNS(=O)(=O)c1ccccc1)OCC(=O)c1ccc([N+](=O)[O-])cc1 | inconclusive: -60.9%
5 | COC(=O)C1=C(C)Nc2nnnn2C1c1cccs1 (stereo unspecified) | inconclusive: -39.3%
6 | O=C(/C=C/c1ccccc1)NC(NC(=S)Nc1ccc(Cl)cc1Cl)C(Cl)(Cl)Cl (stereo unspecified) | inconclusive: -74.1%
7 | COc1ccc(C(C)(C)C)cc1NC(=O)Nc1ccc2c(c1)OCO2 | inactive: 0.744%
8 | COc1ccc(NS(=O)(=O)c2cccc(NC(=O)c3ccc(S(=O)(=O)N4CCCCCC4)cc3)c2)cc1 | active: -112%
9 | CS(=O)(=O)Nc1ccc(S(=O)(=O)Nc2nccs2)cc1 | inactive: -29.4%
10 | O=c1ccnc(SCn2nnc3ccccc3c2=O)[nH]1 | inconclusive: -36.5%
11 | O=c1cc(C(F)(F)F)nc(-n2[nH]c3c(c2=O)CCCC3)[nH]1 | inconclusive: -31.4%
12 | COc1ccc(C(=O)Nn2c(SCC(=O)NC3CCCCC3)nc3ccccc3c2=O)cc1 | inactive: -23.7%
13 | CCC1CCC(C(=O)NNC(=O)OC)CC1 (stereo unspecified) | inconclusive: -32.6%
14 | c1cc(-c2nn[nH]n2)ccc1CN1CCCCC1 | inconclusive: -76.6%
15 | Cc1cccc(NC(=O)c2c(C)cc(=O)oc2C)n1 | inconclusive: -55.1%
16 | Cc1ccc(NC(=O)Cn2cnc3c(cnn3C(C)(C)C)c2=O)cc1 | active: -100%
17 | Cc1ccc(-c2cc(NC(=O)CSc3n[nH]c(N)n3)n(-c3ccccc3)n2)cc1 | inactive: 6.62%
18 | COc1ccc(Cc2nnc(NC(=O)c3cccc([N+](=O)[O-])c3C)s2)cc1 | inconclusive: -40%
19 | O=C1CC(SCCO)C(=O)N1c1ccccc1 (stereo unspecified) | inactive: -27.3%
20 | c1ccc(-c2nnc(SCc3nnc(-c4cccs4)o3)o2)cc1 | inconclusive: -40%
21 | CC(=O)n1c2ccccc2c2nc(NC(C)C)sc21 | inactive: 42.1%
22 | COCC(C)NCC(=O)NC(C)CCc1ccccc1 (stereo unspecified) | inconclusive: -33.1%
23 | CCOc1ccccc1NC(=O)C1C2C=CC(O2)C1C(=O)O (stereo unspecified) | inconclusive: -38.5%

Row | Structure (SMILES) | activity change (PNC), negative = inhibition
24 | O=C(CSCC(=O)N1CCN(c2ccccc2)CC1)Nc1nc(-c2ccc(Cl)s2)cs1 | active: -108%
25 | C(=C\c1ccccc1)/C=N/Nc1nncc(-c2ccccc2)n1 | inactive: 5.46%
26 | O=C(c1ccccc1)c1ccc(OCCn2cnc3ccccc3c2=O)cc1 | inconclusive: -35.8%
27 | COc1cc(O)oc1C=Nc1ccc(Oc2ccccc2)cc1 | inconclusive: -49%
28 | COc1ccccc1-c1c(C)nn2c(NCCN3CCCC3)cc(C)nc12 | inconclusive: -30.9%
29 | CCC/C(O)=C1\C(=O)CC(c2ccccc2)CC1=NC (stereo unspecified) | inconclusive: -43.9%
30 | CC(C)(C)NC(=O)C(c1ccncc1)N(C(=O)c1csnn1)c1ccccc1 (stereo unspecified) | inconclusive: -62.1%
31 | COc1ccc(C(=O)Nc2nc3nc(-c4ccccc4)cc(=O)n3[nH]2)cc1 | inconclusive: -39.9%
32 | COc1ccc(S(=O)(=O)N(CC(=O)NC2CC2)C2CCCCC2)cc1Cl | inactive: 17.8%
33 | CCOC(=O)N1CCN(c2cc3[nH]c(=S)[nH]c3cc2F)CC1 | active: -91%
34 | CCOC(=O)c1[nH]c(C)c(C(=O)NC2CCCC2)c1C | inactive: 8.71%
35 | O=C(Cc1ccccc1)n1nc(-c2ccco2)nc1SCc1ccccc1 | inconclusive: -30.4%
36 | CCC1=NN(C(=O)C(=O)Nc2ccc(OC)cc2)C(O)(C(F)(F)F)C1 (stereo unspecified) | inactive: 31%
37 | COc1cccc(C(=O)Oc2cc(N)n(S(=O)(=O)c3ccc(C)cc3)n2)c1OC | inconclusive: -42.2%
38 | COc1ccc(N2C(=O)C3CCCN3C2c2ccccc2Cl)cc1 (stereo unspecified) | inconclusive: -39.3%
39 | Cc1nn(C)c(C)c1NC(=O)CSc1nnc(C)n1-c1ccccc1 | inconclusive: -56.8%
40 | COc1ccc(/C=N/Nc2nc3ccccc3o2)cc1O | inactive: 8.85%
41 | O=C1CCCc2c1nc(-c1cccc(Cl)c1)n2O | inconclusive: -33.8%
42 | COC(=O)COc1ccc(S(=O)(=O)NCC2CCCO2)cc1Cl (stereo unspecified) | inconclusive: -42.6%
43 | COC(=O)C1=C(C)NC(=O)/C1=C\c1cc(C)n(-c2ccccc2C)c1C | inactive: -19.1%
44 | CC(NC(=O)c1ccnc(C(C)(C)C)c1)c1ccccc1 (stereo unspecified) | inactive: -21.9%
45 | C=CCN(CC=C)Cc1ccc(C(=O)OC)o1 | inactive: -17.8%
46 | COc1ccc(-c2csc(Nc3ccc(S(N)(=O)=O)cc3)n2)cc1 | inactive: -12.7%

Structural class, the entries above with a nitro group on carbon
Row | Structure (SMILES) | activity change (PNC), negative = inhibition
4 | O=C(CNS(=O)(=O)c1ccccc1)OCC(=O)c1ccc([N+](=O)[O-])cc1 | inconclusive: -60.9%
18 | COc1ccc(Cc2nnc(NC(=O)c3cccc([N+](=O)[O-])c3C)s2)cc1 | inconclusive: -40%
